Measured values as given in the supplement of paper PMC4604168 (melanoma cell lines).
This is one part of the list. Repeats are few or missing, and single values can be far off.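 Cells were imaged in 1,536-well plates, and nuclei stained with an antibody against cleaved PARP were counted against all DNA-stained nuclei to give the apoptosis fraction. Screening doses were chosen to leave most cells alive, and resting and induced cleaved-PARP levels differ strongly between cell lines.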

What was measured:
Assay in all cases: cleaved PARP positive nuclei fraction relative to DMSO control; melanoma cells; higher = more apoptosis
Settings in all cases: library dose: low library concentration; 72 h
[1] = test system: MZ2-MEL
[2] = test system: MeWo
[3] = test system: RPMI7951
[4] = test system: RVH-421
[5] = test system: SkMel28
[6] = test system: SkMel30
[7] = test system: SkMel5
[8] = test system: UACC257
[9] = test system: UACC62
[10] = test system: WM115
[11] = test system: WM1716
[12] = test system: WM1745
[13] = test system: WM3526
[14] = test system: WM3619
[15] = test system: WM451Lu
[16] = test system: SkMel2

Row | Compound | cleaved PARP positive nuclei fraction [1] [%] | cleaved PARP positive nuclei fraction [2] [%] | cleaved PARP positive nuclei fraction [3] [%] | cleaved PARP positive nuclei fraction [4] [%] | cleaved PARP positive nuclei fraction [5] [%] | cleaved PARP positive nuclei fraction [6] [%] | cleaved PARP positive nuclei fraction [7] [%] | cleaved PARP positive nuclei fraction [8] [%] | cleaved PARP positive nuclei fraction [9] [%] | cleaved PARP positive nuclei fraction [10] [%] | cleaved PARP positive nuclei fraction [11] [%] | cleaved PARP positive nuclei fraction [12] [%] | cleaved PARP positive nuclei fraction [13] [%] | cleaved PARP positive nuclei fraction [14] [%] | cleaved PARP positive nuclei fraction [15] [%] | cleaved PARP positive nuclei fraction [16] [%]
1 | COc1ccc(COc2ccc(Cc3cnc(N)nc3N)cc2OC)cc1 + Oc1nc(-c2ccc(C(F)(F)F)cc2)nc2c1CSCC2 [XAV939] (first compound 1 µM, partner dose 2 µM) | 73.6 | 68 | 91.1 | 155 | 170 | 88 | 86.5 | 218 | 119 | 68.2 | 92.2 | 136 | 64.5 | 86.5 | 54.7 | 
2 | N#Cc1c(O)c2c(-c3ccc(-c4ccccc4O)cc3)csc2[nH]c1=O + O=C(O)C(=O)Nc1sc2c(c1C(=O)O)CCNC2 [TCS401] (first compound 2 µM, partner dose 1.66667 µM) | 186 | 42.7 | 37.2 | 107 | 25.2 | 28.9 | 25.2 | 58 | 93.7 | 87.3 | 99 | 95.6 | 90.6 | 75.8 | 115 | 
3 | COC(=O)c1sccc1S(=O)(=O)Nc1ccc(Nc2ccccc2)cc1OC + Cn1cc(/C=C2\C(=O)Nc3cccnc32)c2ccccc21 [GW441756] (first compound 1 µM, partner dose 0.4 µM) | 118 | 53.4 | 43.7 | 76.5 | 71.2 | 86.9 | 134 | 71.2 | 95.1 | 98.2 | 97.5 | 120 | 93.2 | 83.5 | 110 | 
4 | O=C(O)c1ccc(-c2c[nH]c3ncc(-c4ccccc4)cc23)cc1C1CCCC1 + CN(NC(=O)CC(=O)NN(C)C(=S)c1ccccc1)C(=S)c1ccccc1 [STA4783] (first compound 0.16 µM, partner dose 0.006 µM) | 830 | 38.3 | 62.4 | 217 | 68.4 | 75.7 | 310 | 159 | 74 | 353 | 126 | 198 | 69.6 | 203 | 124 | 34.2
5 | COc1ccc(COc2ccc(Cc3cnc(N)nc3N)cc2OC)cc1 + Cn1cc(/C=C2\C(=O)Nc3cccnc32)c2ccccc21 [GW441756] (first compound 1 µM, partner dose 0.4 µM) | 72.6 | 74 | 39.2 | 152 | 174 | 60.1 | 35.4 | 153 | 78.8 | 105 | 117 | 109 | 72.2 | 64.3 | 53.5 | 
6 | COc1ccc(-c2ccc3c(N4CCOCC4)nc(N4C[C@@H](C)O[C@@H](C)C4)nc3n2)cc1CO + O=C(O)C(=O)Nc1sc2c(c1C(=O)O)CCNC2 [TCS401] (first compound 0.02 µM, partner dose 1.66667 µM) | 47.7 | 43.9 | 101 | 172 | 145 | 53.1 | 136 | 130 | 178 | 113 | 126 | 105 | 33.3 | 70.2 | 32.1 | 
7 | CN(C)S(=O)(=O)c1ccc2c(c1)/C(=C/c1cc3c([nH]1)CCCC3)C(=O)N2 + COc1cc2c(Oc3ccc4[nH]c(C)cc4c3F)ncnc2cc1OCCCN1CCCC1 [cediranib] (first compound 0.4 µM, partner dose 0.4 µM) | 123 | 144 | 94.7 | 65.1 | 122 | 68 | 265 | 105 | 72 | 80.1 | 99.5 | 93.7 | 123 | 112 | 84.8 | 81.8
8 | CCN(CC)CCCCNc1ncc2cc(-c3cc(OC)cc(OC)c3)c(NC(=O)NC(C)(C)C)nc2n1 + O=S(=O)(c1ccccc1)N(CC(F)(F)F)c1ccc(C(O)(C(F)(F)F)C(F)(F)F)cc1 [T0901317] (first compound 0.1 µM, partner dose 1.4 µM) | 85 | 25.3 | 34.8 | 261 | 176 | 29.8 | 16.7 | 24.2 | 64.4 | 208 | 30 | 115 | 64.3 | 66.4 | 89.8 | 
9 | O=C(O)c1ccc(-c2c[nH]c3ncc(-c4ccccc4)cc23)cc1C1CCCC1 + NCC(=O)Nc1ccc(-n2nc(C(F)(F)F)cc2-c2ccc3c(ccc4ccccc43)c2)cc1 [OSU03012] (first compound 0.16 µM, partner dose 1 µM) | 65 | 154 | 102 | 69.7 | 221 | 118 | 419 | 165 | 96.9 | 85.5 | 146 | 79.4 | 126 | 120 | 87.7 | 135
10 | COc1ccc(COc2ccc(Cc3cnc(N)nc3N)cc2OC)cc1 + Oc1cc(-c2nc(-c3ccccc3)[nH]c2-c2ccncc2)ccc1Cl [L779450] (first compound 1 µM, partner dose 0.2 µM) | 36.3 | 33.9 | 79.4 | 82 | 105 | 27.3 | 27.6 | 137 | 105 | 124 | 72.7 | 227 | 529 | 93.2 | 159 | 
11 | CN(C)S(=O)(=O)c1ccc2c(c1)/C(=C/c1cc3c([nH]1)CCCC3)C(=O)N2 + CN(NC(=O)CC(=O)NN(C)C(=S)c1ccccc1)C(=S)c1ccccc1 [STA4783] (first compound 0.4 µM, partner dose 0.006 µM) | 85.3 | 36.3 | 71.6 | 30.5 | 89.4 | 57.8 | 95.3 | 88.1 | 281 | 89.2 | 120 | 345 | 70.6 | 148 | 29.3 | 34.2
12 | CN(NC(=O)CC(=O)NN(C)C(=S)c1ccccc1)C(=S)c1ccccc1 + CCc1ccc(CCOc2ccc(CC3SC(=O)NC3=O)cc2)nc1 [pioglitazone] (first compound 0.006 µM, partner dose 2 µM) | 112 | 108 | 57.3 | 96.6 | 204 | 14.2 | 132 | 126 | 191 | 233 | 137 | 342 | 56.3 | 122 | 209 | 
13 | CN(C)S(=O)(=O)c1ccc2c(c1)/C(=C/c1cc3c([nH]1)CCCC3)C(=O)N2 + O=C(O)C(=O)Nc1sc2c(c1C(=O)O)CCNC2 [TCS401] (first compound 0.4 µM, partner dose 1.66667 µM) | 60.2 | 143 | 153 | 49.5 | 127 | 41.5 | 52.5 | 111 | 104 | 154 | 83.7 | 114 | 37.4 | 111 | 167 | 
14 | CCc1ccc(CCOc2ccc(CC3SC(=O)NC3=O)cc2)nc1 (centres undefined) [pioglitazone] + COc1ccc(COc2ccc(Cc3cnc(N)nc3N)cc2OC)cc1 [GW2580] (first compound 2 µM, partner dose 1 µM) | 21.1 | 110 | 93.3 | 70 | 66.3 | 99 | 27.8 | 50.4 | 28.1 | 44.5 | 92.9 | 91 | 142 | 80.2 | 123 | 
15 | COc1ccc(-c2ccc3c(N4CCOCC4)nc(N4C[C@@H](C)O[C@@H](C)C4)nc3n2)cc1CO + O=c1cc(-c2cccc3c2Sc2ccccc2S3)oc(N2CCOCC2)c1 [KU55933] (first compound 0.02 µM, partner dose 1 µM) | 158 | 58.6 | 75.5 | 83.9 | 162 | 49.6 | 38.5 | 120 | 100 | 59.8 | 28.5 | 99 | 76.5 | 205 | 249 | 
16 | CCc1ccc(CCOc2ccc(CC3SC(=O)NC3=O)cc2)nc1 (centres undefined) [pioglitazone] + Cc1cc([N+](=O)[O-])ccc1NS(=O)(=O)c1cc(Cl)ccc1Cl [FH535] (first compound 2 µM, partner dose 1 µM) | 132 | 148 | 66.2 | 34.6 | 72.7 | 100 | 35.4 | 71.7 | 30.7 | 109 | 117 | 99.5 | 69.7 | 85.5 | 135 | 
17 | CN(NC(=O)CC(=O)NN(C)C(=S)c1ccccc1)C(=S)c1ccccc1 + CC(C)CCN1c2nc(Nc3cc(F)c(O)c(F)c3)ncc2N(C)C(=O)C1C [BID1870] (first compound 0.006 µM, partner dose 0.2 µM) | 146 | 294 | 135 | 52.5 | 124 | 52.3 | 65.1 | 172 | 144 | 80.4 | 113 | 255 | 80.7 | 149 | 146 | 
18 | Oc1nc(-c2ccc(C(F)(F)F)cc2)nc2c1CSCC2 + O=c1cc(-c2cccc3c2Sc2ccccc2S3)oc(N2CCOCC2)c1 [KU55933] (first compound 2 µM, partner dose 1 µM) | 83.9 | 37.3 | 92.5 | 95.2 | 208 | 80.9 | 42.5 | 245 | 79.3 | 49.2 | 318 | 121 | 72.6 | 85.4 | 90.6 | 
19 | COc1cc2ncnc(Nc3ccc(Oc4ccccc4)cc3)c2cc1OC + Oc1cc(-c2nc(-c3ccccc3)[nH]c2-c2ccncc2)ccc1Cl [L779450] (first compound 2 µM, partner dose 0.2 µM) | 109 | 92.9 | 76.8 | 73.3 | 198 | 318 | 58.5 | 111 | 157 | 110 | 36.5 | 134 | 39.7 | 80.7 | 123 | 
20 | COc1cc2c(Oc3ccc4[nH]c(C)cc4c3F)ncnc2cc1OCCCN1CCCC1 [cediranib] + COc1cc2ncnc(Nc3ccc(Oc4ccccc4)cc3)c2cc1OC [SrcI1] (first compound 0.4 µM, partner dose 2 µM) | 168 | 143 | 87.6 | 20.2 | 98.5 | 160 | 65.4 | 64.9 | 39.5 | 73.7 | 72.8 | 112 | 76.4 | 111 | 194 | 
21 | c1cc(-c2cnn3cc(-c4ccc(OCCN5CCCCC5)cc4)cnc23)ccn1 [Dorsomorphin] + COc1cc(N2CCC(N3CCN(C)CC3)CC2)ccc1Nc1ncc(Cl)c(Nc2ccccc2S(=O)(=O)C(C)C)n1 [NVP-TAE684] (first compound 0.4 µM, partner dose 0.08 µM) | 100 | 27.3 | 76.7 | 81.6 | 92.8 | 86.9 | 117 | 102 | 128 | 176 | 122 | 125 | 99.5 | 135 | 62.6 | 

Nos. 11–15 from above:
Row | Compound | cleaved PARP positive nuclei fraction [1] [%] | cleaved PARP positive nuclei fraction [2] [%] | cleaved PARP positive nuclei fraction [3] [%] | cleaved PARP positive nuclei fraction [4] [%] | cleaved PARP positive nuclei fraction [5] [%] | cleaved PARP positive nuclei fraction [6] [%] | cleaved PARP positive nuclei fraction [7] [%] | cleaved PARP positive nuclei fraction [8] [%] | cleaved PARP positive nuclei fraction [9] [%] | cleaved PARP positive nuclei fraction [10] [%] | cleaved PARP positive nuclei fraction [11] [%] | cleaved PARP positive nuclei fraction [12] [%] | cleaved PARP positive nuclei fraction [13] [%] | cleaved PARP positive nuclei fraction [14] [%] | cleaved PARP positive nuclei fraction [15] [%] | cleaved PARP positive nuclei fraction [16] [%]
11 | CN(C)S(=O)(=O)c1ccc2c(c1)/C(=C/c1cc3c([nH]1)CCCC3)C(=O)N2 + CN(NC(=O)CC(=O)NN(C)C(=S)c1ccccc1)C(=S)c1ccccc1 [STA4783] (first compound 0.4 µM, partner dose 0.006 µM) | 85.3 | 36.3 | 71.6 | 30.5 | 89.4 | 57.8 | 95.3 | 88.1 | 281 | 89.2 | 120 | 345 | 70.6 | 148 | 29.3 | 34.2
12 | CN(NC(=O)CC(=O)NN(C)C(=S)c1ccccc1)C(=S)c1ccccc1 + CCc1ccc(CCOc2ccc(CC3SC(=O)NC3=O)cc2)nc1 [pioglitazone] (first compound 0.006 µM, partner dose 2 µM) | 112 | 108 | 57.3 | 96.6 | 204 | 14.2 | 132 | 126 | 191 | 233 | 137 | 342 | 56.3 | 122 | 209 | 
13 | CN(C)S(=O)(=O)c1ccc2c(c1)/C(=C/c1cc3c([nH]1)CCCC3)C(=O)N2 + O=C(O)C(=O)Nc1sc2c(c1C(=O)O)CCNC2 [TCS401] (first compound 0.4 µM, partner dose 1.66667 µM) | 60.2 | 143 | 153 | 49.5 | 127 | 41.5 | 52.5 | 111 | 104 | 154 | 83.7 | 114 | 37.4 | 111 | 167 | 
14 | CCc1ccc(CCOc2ccc(CC3SC(=O)NC3=O)cc2)nc1 (centres undefined) [pioglitazone] + COc1ccc(COc2ccc(Cc3cnc(N)nc3N)cc2OC)cc1 [GW2580] (first compound 2 µM, partner dose 1 µM) | 21.1 | 110 | 93.3 | 70 | 66.3 | 99 | 27.8 | 50.4 | 28.1 | 44.5 | 92.9 | 91 | 142 | 80.2 | 123 | 
15 | COc1ccc(-c2ccc3c(N4CCOCC4)nc(N4C[C@@H](C)O[C@@H](C)C4)nc3n2)cc1CO + O=c1cc(-c2cccc3c2Sc2ccccc2S3)oc(N2CCOCC2)c1 [KU55933] (first compound 0.02 µM, partner dose 1 µM) | 158 | 58.6 | 75.5 | 83.9 | 162 | 49.6 | 38.5 | 120 | 100 | 59.8 | 28.5 | 99 | 76.5 | 205 | 249 | 
